Measurements reported in PubChem BioAssay AID1688 (National Center for Advancing Translational Sciences (NCATS), 2009).
Among all 220,000 compounds or so, about 2,400 (1.1%) were called active. The shares of active, inactive and inconclusive entries below differ from those in the screen. The call rests on the fitted dose curve; in most records, active means well fitted inhibition curve with a large enough effect; inconclusive means small, poorly fitted or top-dose-only effect, or effect the other way; inactive means no such curve, though single readings can be large or run the other way. A potency beside an inconclusive call is a rough fit, not a confirmed value.

Experiment: qHTS Multiplex Assay to Identify Dual Action Probes in a Cell Model of Huntington: Aggregate Formation (GFP); further: nearly all actives have a fitted effect of over 60% in size
Conditions: PC12 HttQ103-GFP aggregates, Acumen cytometry, 40 h; activity change, negative = inhibition: at 46.1 µM (top of the series) unless noted
Procedure, shortened: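 Read-out: GFP aggregate count by laser scanning cytometer (488 nm excitation, 500-530 nm emission, 1–25 µm objects >6 SD above background). Cells: PC12, inducible HTTex1-Q103-GFP, 100 nM tebufenozide; compounds titrated.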
On the % scale 0 is the no-effect control and ±100 the full control effect; potency means the concentration at half of the fitted maximal effect.

Question: For `CN(C)C(CNC(=O)c1ccc(NC(=O)CC#N)cc1)c1ccccc1` (stereo unspecified), which Potency is on record?
Answer: The Potency was “inactive”.

Question: For `CC(=O)Nc1ccc(S(=O)(=O)Nc2nc3ccccc3nc2Nc2ccc(S(N)(=O)=O)cc2)cc1`, which Potency is on record?
Answer: The Potency was “inactive”.

Question: With `COC(=O)c1ccc(N2CCOCC2)c(NC(=O)Nc2cccc(OC)c2)c1` as the compound, how does the Potency read?
Answer: Its Potency is “inactive”.

Question: For `Cc1ccc2cc3c(N)c(C(=O)Nc4c(C)[nH]c(=O)[nH]c4=O)sc3nc2c1`, which Potency is on record?
Answer: Its Potency is inconclusive: 35.5 µM [inhibitor, single point].

Question: Which Potency does the source give for `C=CCc1cccc(/C=N/NC(=O)c2ccccc2Br)c1O` here?
Answer: Its Potency is inconclusive: 7.94 µM [inhibitor, partial curve].

Question: For `COc1ccc(F)c(-c2nc(CN3CCC(c4ccccc4)CC3)c(C)o2)c1`, which Potency is on record?
Answer: The Potency was inconclusive: 0.0316 µM [inhibitor, full curve, poor fit].

Question: For `COC(=O)c1sc(NC(=O)c2cc(-c3ccccc3)nc3ccccc23)c(C#N)c1C`, which Potency is on record?
Answer: The Potency was active: 2.24 µM.

Question: For `Cc1ccc(S(=O)(=O)NCCN=C(CN2CCCC2)NS(=O)(=O)c2ccc(C)cc2)cc1`, which Potency is on record?
Answer: Its Potency is inconclusive: 35.5 µM [inhibitor, single point].

Question: With `O=C(Nc1nc2ccc(Oc3ccccc3)cc2s1)c1cc([N+](=O)[O-])ccc1N1CCOCC1` as the compound, how does the Potency read?
Answer: The Potency was inconclusive: 22.4 µM [inhibitor, single point].

Question: With `CCc1cc(-c2n[nH]c(C)c2-c2nc3ccccc3s2)c(O)cc1OCC(=O)NN` as the compound, how does the Potency read?
Answer: The Potency was inconclusive: 2.82 µM [activator, partial curve].

Question: Which Potency does the source give for `O=C(NCCc1c[nH]c2ccccc12)c1cccc(S(=O)(=O)Nc2ccccc2Cl)c1` here?
Answer: The Potency was inconclusive: 5.62 µM [activator, single point].

Question: With `Cn1c(-c2ccc(F)cc2)cnc1NCc1cc2c(cc1[N+](=O)[O-])OCO2` as the compound, how does the Potency read?
Answer: Its Potency is “inactive”.

Question: With `Cc1ccc(O)c(-c2cc(C(F)(F)C(F)F)[nH]n2)c1` as the compound, how does the Potency read?
Answer: The Potency was inconclusive: 17.8 µM [inhibitor, single point].

Question: Which Potency does the source give for `CC1=C(C)C(c2ccccc2)NC(=S)N1` (stereo unspecified) here?
Answer: The Potency was “inactive”.

Question: For `Oc1cccc(Nc2ncnc3ccccc23)c1`, which Potency is on record?
Answer: Its Potency is inconclusive: 12.6 µM [inhibitor, single point].

Question: With `O=C(CCSc1ccc(Cl)c(Cl)c1)NC12CC3CC(CC(C3)C1)C2` as the compound, how does the Potency read?
Answer: Its Potency is inconclusive: 15.8 µM [inhibitor, single point].

Question: For `CCOc1ccc(NC(=O)c2ccccc2O)cc1`, which Potency is on record?
Answer: Its Potency is inconclusive: 22.4 µM [inhibitor, single point].

Question: Which Potency does the source give for `Cc1ccc(-c2nnc(-n3nc(C)cc3C)c3ccccc23)cc1` here?
Answer: The Potency was “inactive”.

Question: Which Potency does the source give for `O=C(CN1CCN(S(=O)(=O)c2ccccc2)CC1)Nc1ccc([N+](=O)[O-])cc1` here?
Answer: The Potency was inconclusive: 14.1 µM [inhibitor, single point].

Question: With `CN(C)c1ccc(-c2nc3ccccn3c2/N=C/c2ccc(Br)cc2)cc1` as the compound, how does the Potency read?
Answer: The Potency was “inactive”.

Question: With `COc1cc2c(cc1OC)-c1c(OC)c(OC)cc3ccnc(c13)C2=O` as the compound, how does the Potency read?
Answer: The Potency was inconclusive: 1.78 µM [inhibitor, partial curve, poor fit].

Question: For `N#Cc1cc(O)c(-n2nnc3ccccc32)cc1C#N`, which Potency is on record?
Answer: Its Potency is “inactive”.

Question: For `O=C1/C(=C/c2cccnc2)CCc2c1[nH]c1ccccc21`, which Potency is on record?
Answer: The Potency was inconclusive: 7.08 µM [inhibitor, partial curve].

Question: Which Potency does the source give for `O=C(/C=C/N1CCOCC1)c1ccc(-c2ccccc2)cc1` here?
Answer: The Potency was “inactive”.

Question: With `COc1ccc(C(=O)COc2ccc(NC(C)=O)cc2)cc1` as the compound, how does the Potency read?
Answer: The Potency was inconclusive: 5.62 µM [inhibitor, single point].

Question: With `COc1ccc(CNS(=O)(=O)NCc2ccccc2)cc1` as the compound, how does the Potency read?
Answer: The Potency was inconclusive: 1.26 µM [activator, partial curve].

Question: For `COCCn1c(C)cc(C(=O)COC(=O)c2ccc3c(c2)NC(=O)CS3)c1C`, which Potency is on record?
Answer: Its Potency is inconclusive: 2.82 µM [activator, partial curve].

Question: For `COc1cc(OC)cc(C(=O)N2CCN(Cc3cccc(F)c3)CC2)c1`, which Potency is on record?
Answer: Its Potency is inconclusive: 12.6 µM [inhibitor, single point].

Question: For `C[C@@H](C(=O)N1CCN(C(=O)OC(C)(C)C)CC1)n1cc(-c2cn([C@@H](C)C(=O)N3CCN(C(=O)OC(C)(C)C)CC3)nn2)nn1`, which Potency is on record?
Answer: Its Potency is inconclusive: 0.562 µM [activator, single point].

Question: Which Potency does the source give for `Cc1c(C(=O)Nc2nccs2)sc2nc(-c3cccs3)cc(C(F)(F)F)c12` here?
Answer: The Potency was inconclusive: 10 µM [inhibitor, partial curve].

Question: Which Potency does the source give for `COc1ccc(Cc2c(O)nc(SCC(=O)c3ccc(OC)cc3)[nH]c2=O)cc1` here?
Answer: Its Potency is inconclusive: 20 µM [activator, partial curve].

Question: With `CCC(=O)Nc1cccc(C2=NOC3(C2)C[C@H](C(N)=O)N(C(=O)CC#N)C3)c1` (stereo partly specified) as the compound, how does the activity change, negative = inhibition read?
Answer: The activity change, negative = inhibition was inactive: -4.19% [at 9.22 µM].

Question: Which Potency does the source give for `C=CCn1c(CCCOc2ccc(Cl)cc2Cl)n[nH]c1=S` here?
Answer: The Potency was inconclusive: 15.8 µM [activator, single point].

Question: With `CCOCC(=O)N1CCN(c2ccc([N+](=O)[O-])cc2)CC1` as the compound, how does the Potency read?
Answer: Its Potency is inconclusive: 35.5 µM [inhibitor, single point].

Question: With `COc1ccc(-n2c(O)c(/C=N/NS(=O)(=O)c3cc(C)ccc3C)c3ccccc3c2=O)cc1OC` as the compound, how does the Potency read?
Answer: Its Potency is inconclusive: 12.6 µM [inhibitor, single point].

Question: Which Potency does the source give for `CN(C)S(=O)(=O)c1cccc(N=c2scc(-c3ccc4c(c3)NC(=O)CO4)n2CC2CCCO2)c1` (stereo unspecified) here?
Answer: Its Potency is inconclusive: 22.4 µM [inhibitor, single point].

Question: With `CCOC(=O)c1ccc[n+](CC(=O)c2ccc(OC)cc2)c1` as the compound, how does the Potency read?
Answer: The Potency was inconclusive: 11.2 µM [inhibitor, single point].

Question: Which Potency does the source give for `CCN(CC)S(=O)(=O)c1ccc(C(=O)Nc2ccc(OCC(=O)N3CCOCC3)cc2)cc1` here?
Answer: Its Potency is “inactive”.

Question: With `C(=C\c1ccco1)/C1=NN(c2ccccc2)C(c2ccco2)C1` (stereo unspecified) as the compound, how does the Potency read?
Answer: The Potency was inconclusive: 10 µM [activator, partial curve].

Question: With `CCOC(=O)C1CCN(c2nc3cc(OC)ccc3cc2C#N)CC1` as the compound, how does the Potency read?
Answer: The Potency was inconclusive: 1.26 µM [activator, single point].

Question: For `O=C(NCCC1=CCCCC1)C(=O)NCC(c1ccco1)N1CCN(c2ccc(F)cc2)CC1` (stereo unspecified), which Potency is on record?
Answer: Its Potency is inconclusive: 1.26 µM [activator, single point].

Question: For `CCSC1=N/C(=C\c2ccc(C)s2)C(=O)S1`, which Potency is on record?
Answer: The Potency was “inactive”.

Question: Which Potency does the source give for `CC(/C=C1\SC(=S)N(CCCC(=O)Nc2ccc(C(=O)O)c(O)c2)C1=O)=C\c1ccccc1` here?
Answer: The Potency was “inactive”.

Question: For `CCOc1ccc(N2C(=O)CS/C2=C(\C(Cl)=C(Cl)Cl)[N+](=O)[O-])cc1`, which Potency is on record?
Answer: The Potency was inconclusive: 35.5 µM [activator, single point].

Question: With `O=C(COc1ccc2ccccc2c1Br)NC(=S)Nc1cccc(CO)c1` as the compound, how does the Potency read?
Answer: Its Potency is “inactive”.

Question: With `O=C1/C(=C/c2ccccc2[N+](=O)[O-])COc2ccccc21` as the compound, how does the Potency read?
Answer: Its Potency is inconclusive: 15.8 µM [inhibitor, single point].

Question: For `O=C(NCC(=O)N(Cc1ccco1)C(C(=O)NC1CCCCC1)c1cccnc1)c1cccs1` (stereo unspecified), which Potency is on record?
Answer: Its Potency is inconclusive: 14.1 µM [activator, single point].

Question: With `Cc1nn(-c2ccccc2)c(C)c1/C=N/NC(=O)c1cc(-c2ccccc2)n[nH]1` as the compound, how does the Potency read?
Answer: The Potency was “inactive”.

Question: For `COc1ccc2c(C)nc(Nc3nc(-c4ccccc4)cc(=O)[nH]3)nc2c1`, which Potency is on record?
Answer: The Potency was inconclusive: 5.62 µM [inhibitor, single point].

Question: Which Potency does the source give for `CCN(CC)c1ccc2cc(C(N)=O)/c(=N\NC(=O)c3ccncc3)oc2c1` here?
Answer: Its Potency is inconclusive: 3.55 µM [inhibitor, partial curve].

Question: Which Potency does the source give for `CC(C)(C)SCCNC(=O)c1ccc(Cl)c([N+](=O)[O-])c1` here?
Answer: The Potency was “inactive”.

Question: With `COc1ccc(CCNC(=O)c2cc(-c3ccc(Cl)c(Cl)c3)oc2C)cc1` as the compound, how does the Potency read?
Answer: The Potency was “inactive”.

Question: Which Potency does the source give for `CCSc1nnc(NC(=O)NC(C)(C(F)(F)F)C(F)(F)F)s1` here?
Answer: The Potency was inconclusive: 17.8 µM [inhibitor, partial curve].

Question: With `O=C(CN1CCN(c2ccccc2)CC1)Nc1ccccc1Sc1ccccc1` as the compound, how does the Potency read?
Answer: Its Potency is inconclusive: 3.55 µM [inhibitor, full curve].

Question: With `Cc1nc2c(-c3ccccc3)c[nH]n2c(=O)c1Cc1ccccc1` as the compound, how does the Potency read?
Answer: The Potency was active: 7.08 µM.

Question: For `C=CCn1c(CNc2ccccc2)nnc1SCC(=O)N/N=C/c1ccccc1O`, which Potency is on record?
Answer: Its Potency is active: 17.8 µM.

Question: With `CCOC(=O)c1c(NC(=O)COC(=O)Cn2cnc3ccccc32)sc2c1CCC(C)C2` (stereo unspecified) as the compound, how does the Potency read?
Answer: The Potency was “inactive”.

Question: With `CC(C)c1ccccc1NC(=O)COC(=O)/C=C/c1cccc([N+](=O)[O-])c1` as the compound, how does the Potency read?
Answer: The Potency was inconclusive: 22.4 µM [inhibitor, single point].

Question: For `Cc1ccc(Cn2c(=N)n(CC(=O)c3ccc([N+](=O)[O-])cc3)c3ccccc32)cc1`, which Potency is on record?
Answer: The Potency was inconclusive: 35.5 µM [inhibitor, partial curve, poor fit].

Question: For `Cc1cc(C)n(-c2ccc(S(N)(=O)=O)cc2[N+](=O)[O-])n1`, which Potency is on record?
Answer: The Potency was inconclusive: 6.31 µM [activator, single point].

Question: Which Potency does the source give for `COCCNS(=O)(=O)c1ccc2c(c1)oc(=O)c1cc(S(=O)(=O)NCCOC)ccc12` here?
Answer: The Potency was inconclusive: 0.562 µM [activator, single point].

Question: With `c1cc2c(cc1C1=NNC(=NC3CC3)SC1)OCCO2` as the compound, how does the Potency read?
Answer: Its Potency is inconclusive: 10 µM [inhibitor, partial curve].

Question: Which Potency does the source give for `O=C(c1ccc(COc2ccc(Cl)cc2)o1)N1CCN(Cc2ccc3c(c2)OCO3)CC1` here?
Answer: The Potency was inconclusive: 22.4 µM [inhibitor, single point].

Question: With `O=C(NC(=S)Nc1cccc(S(=O)(=O)NC2=NCCC2)c1)c1cc(-c2ccco2)nc2ccccc12` as the compound, how does the Potency read?
Answer: Its Potency is inconclusive: 2.82 µM [inhibitor, partial curve, poor fit].

Question: For `CC(C)(C)c1ccc(C(=O)C=[N+]=[N-])cc1`, which Potency is on record?
Answer: Its Potency is inconclusive: 22.4 µM [inhibitor, single point].

Question: For `O=C1c2ccccc2C(=O)N1c1cccnc1`, which Potency is on record?
Answer: Its Potency is inconclusive: 5.62 µM [activator, partial curve].
